# Some of the results follow.
# Protein sequences, listed by entry. Tags and fused reporters are not part of them. Lines headed by an entry give the natural chain unless they say otherwise; changes in a name come on top.
# UniProt Q5BKX5: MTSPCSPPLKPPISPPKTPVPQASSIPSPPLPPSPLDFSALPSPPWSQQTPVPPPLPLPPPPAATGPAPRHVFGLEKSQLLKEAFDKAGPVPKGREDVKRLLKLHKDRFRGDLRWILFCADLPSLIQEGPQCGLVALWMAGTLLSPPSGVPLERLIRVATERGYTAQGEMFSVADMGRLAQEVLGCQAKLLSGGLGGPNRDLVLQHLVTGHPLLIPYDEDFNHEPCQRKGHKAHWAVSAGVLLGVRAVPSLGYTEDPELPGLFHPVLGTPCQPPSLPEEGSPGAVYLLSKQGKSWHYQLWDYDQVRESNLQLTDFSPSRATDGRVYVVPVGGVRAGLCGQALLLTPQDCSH
# UniProt Q9NXF7, whole entry: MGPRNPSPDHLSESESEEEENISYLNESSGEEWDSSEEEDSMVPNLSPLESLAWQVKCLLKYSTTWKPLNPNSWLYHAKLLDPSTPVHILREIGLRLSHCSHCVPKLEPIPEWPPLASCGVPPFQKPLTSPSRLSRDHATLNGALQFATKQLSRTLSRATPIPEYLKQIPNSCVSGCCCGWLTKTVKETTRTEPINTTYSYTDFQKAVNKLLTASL
# UniProt Q629K1: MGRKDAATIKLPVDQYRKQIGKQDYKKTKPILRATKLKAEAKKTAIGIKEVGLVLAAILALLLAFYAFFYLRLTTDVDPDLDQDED
# UniProt Q9NWD8: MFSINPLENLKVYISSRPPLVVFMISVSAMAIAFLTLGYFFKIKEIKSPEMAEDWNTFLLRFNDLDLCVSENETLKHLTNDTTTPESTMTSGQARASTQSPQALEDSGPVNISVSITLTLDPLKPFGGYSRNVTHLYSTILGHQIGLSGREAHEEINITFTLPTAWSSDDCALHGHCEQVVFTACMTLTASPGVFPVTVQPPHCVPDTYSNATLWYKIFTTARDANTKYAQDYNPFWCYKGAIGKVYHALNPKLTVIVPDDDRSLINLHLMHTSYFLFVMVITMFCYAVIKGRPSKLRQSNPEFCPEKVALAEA
# UniProt Q9BQ75: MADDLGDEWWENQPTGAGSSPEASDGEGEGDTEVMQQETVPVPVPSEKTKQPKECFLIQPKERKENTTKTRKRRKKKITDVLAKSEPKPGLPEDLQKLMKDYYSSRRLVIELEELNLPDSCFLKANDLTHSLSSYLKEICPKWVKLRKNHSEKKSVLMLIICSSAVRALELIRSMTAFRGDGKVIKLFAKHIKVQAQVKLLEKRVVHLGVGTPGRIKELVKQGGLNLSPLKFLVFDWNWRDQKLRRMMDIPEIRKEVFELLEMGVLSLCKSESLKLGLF
# UniProt Q9NV56, whole entry: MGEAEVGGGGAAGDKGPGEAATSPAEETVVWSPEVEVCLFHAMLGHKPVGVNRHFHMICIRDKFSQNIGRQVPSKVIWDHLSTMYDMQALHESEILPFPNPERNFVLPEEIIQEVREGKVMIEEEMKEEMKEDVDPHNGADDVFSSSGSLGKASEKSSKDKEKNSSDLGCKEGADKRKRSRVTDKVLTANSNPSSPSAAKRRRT
# UniProt Q96B23: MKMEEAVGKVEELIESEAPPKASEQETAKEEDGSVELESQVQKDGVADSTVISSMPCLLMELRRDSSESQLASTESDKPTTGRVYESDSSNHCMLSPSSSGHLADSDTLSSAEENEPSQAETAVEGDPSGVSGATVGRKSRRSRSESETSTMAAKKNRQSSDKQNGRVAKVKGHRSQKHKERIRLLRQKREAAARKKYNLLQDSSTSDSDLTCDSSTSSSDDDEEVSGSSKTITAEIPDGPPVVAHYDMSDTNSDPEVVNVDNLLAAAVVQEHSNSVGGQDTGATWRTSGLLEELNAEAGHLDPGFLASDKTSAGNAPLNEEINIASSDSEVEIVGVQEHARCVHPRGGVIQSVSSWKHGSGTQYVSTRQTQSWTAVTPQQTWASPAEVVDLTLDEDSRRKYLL
# UniProt Q9Y530: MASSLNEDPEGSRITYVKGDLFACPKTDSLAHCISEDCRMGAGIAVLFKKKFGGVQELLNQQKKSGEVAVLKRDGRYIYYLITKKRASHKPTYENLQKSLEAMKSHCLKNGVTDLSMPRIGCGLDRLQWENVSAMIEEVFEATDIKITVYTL
# UniProt Q96GS4: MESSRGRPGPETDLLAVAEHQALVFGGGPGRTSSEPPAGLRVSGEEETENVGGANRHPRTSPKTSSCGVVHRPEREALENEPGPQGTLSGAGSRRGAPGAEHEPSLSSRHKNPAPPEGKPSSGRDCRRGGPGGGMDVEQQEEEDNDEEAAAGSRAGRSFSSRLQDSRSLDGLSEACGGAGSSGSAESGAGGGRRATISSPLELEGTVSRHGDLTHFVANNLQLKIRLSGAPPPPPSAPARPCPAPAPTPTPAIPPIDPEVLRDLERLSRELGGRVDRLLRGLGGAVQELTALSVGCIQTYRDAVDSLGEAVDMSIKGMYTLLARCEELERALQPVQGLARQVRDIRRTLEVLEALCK
# UniProt P04632: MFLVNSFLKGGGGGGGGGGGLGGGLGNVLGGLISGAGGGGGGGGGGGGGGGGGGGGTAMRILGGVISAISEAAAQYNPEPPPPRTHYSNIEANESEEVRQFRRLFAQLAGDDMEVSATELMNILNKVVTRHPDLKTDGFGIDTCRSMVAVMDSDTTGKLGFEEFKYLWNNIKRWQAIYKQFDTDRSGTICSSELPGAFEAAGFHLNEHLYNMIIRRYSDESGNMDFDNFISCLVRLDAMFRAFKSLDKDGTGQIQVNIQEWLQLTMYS
# UniProt Q6PJW8: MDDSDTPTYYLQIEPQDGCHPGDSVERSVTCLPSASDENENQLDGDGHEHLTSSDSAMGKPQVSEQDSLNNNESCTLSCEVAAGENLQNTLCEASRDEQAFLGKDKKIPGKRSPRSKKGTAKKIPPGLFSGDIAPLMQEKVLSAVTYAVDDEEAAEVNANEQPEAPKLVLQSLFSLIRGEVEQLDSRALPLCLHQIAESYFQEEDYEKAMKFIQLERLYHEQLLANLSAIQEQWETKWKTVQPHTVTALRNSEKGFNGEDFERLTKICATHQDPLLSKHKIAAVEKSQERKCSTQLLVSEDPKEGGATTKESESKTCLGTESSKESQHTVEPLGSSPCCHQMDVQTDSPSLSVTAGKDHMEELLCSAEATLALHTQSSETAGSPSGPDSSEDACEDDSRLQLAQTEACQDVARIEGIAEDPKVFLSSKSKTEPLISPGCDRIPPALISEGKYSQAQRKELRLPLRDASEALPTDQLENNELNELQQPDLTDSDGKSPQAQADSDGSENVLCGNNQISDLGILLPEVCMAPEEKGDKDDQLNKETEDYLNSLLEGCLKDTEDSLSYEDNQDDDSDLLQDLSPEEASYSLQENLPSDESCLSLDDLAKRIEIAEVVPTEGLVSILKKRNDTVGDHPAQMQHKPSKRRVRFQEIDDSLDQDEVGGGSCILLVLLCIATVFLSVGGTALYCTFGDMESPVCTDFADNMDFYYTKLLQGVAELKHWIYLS
# UniProt Q3KRA6: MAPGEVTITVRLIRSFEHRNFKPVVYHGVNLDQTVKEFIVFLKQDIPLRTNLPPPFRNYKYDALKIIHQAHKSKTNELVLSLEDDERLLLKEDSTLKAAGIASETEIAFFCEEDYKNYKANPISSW
# UniProt Q9BRJ6: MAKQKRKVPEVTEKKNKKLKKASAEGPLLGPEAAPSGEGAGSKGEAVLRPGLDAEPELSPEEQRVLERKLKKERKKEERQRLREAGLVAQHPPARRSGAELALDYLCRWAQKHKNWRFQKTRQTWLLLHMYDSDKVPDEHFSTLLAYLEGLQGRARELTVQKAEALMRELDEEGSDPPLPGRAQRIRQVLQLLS
# UniProt A8MVS5: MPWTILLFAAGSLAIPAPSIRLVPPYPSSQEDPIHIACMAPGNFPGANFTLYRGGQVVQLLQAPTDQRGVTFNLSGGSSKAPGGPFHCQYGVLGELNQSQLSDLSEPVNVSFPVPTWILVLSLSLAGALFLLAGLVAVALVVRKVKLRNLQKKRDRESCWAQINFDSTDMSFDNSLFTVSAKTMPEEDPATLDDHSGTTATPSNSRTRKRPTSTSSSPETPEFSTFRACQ
# UniProt Q9BV19: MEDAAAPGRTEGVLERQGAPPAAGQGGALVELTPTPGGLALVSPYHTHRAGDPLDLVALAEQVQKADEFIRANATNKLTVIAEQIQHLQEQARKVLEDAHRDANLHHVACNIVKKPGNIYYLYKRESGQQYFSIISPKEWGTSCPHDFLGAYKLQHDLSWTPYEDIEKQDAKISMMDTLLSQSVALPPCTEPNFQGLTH
# UniProt P35219: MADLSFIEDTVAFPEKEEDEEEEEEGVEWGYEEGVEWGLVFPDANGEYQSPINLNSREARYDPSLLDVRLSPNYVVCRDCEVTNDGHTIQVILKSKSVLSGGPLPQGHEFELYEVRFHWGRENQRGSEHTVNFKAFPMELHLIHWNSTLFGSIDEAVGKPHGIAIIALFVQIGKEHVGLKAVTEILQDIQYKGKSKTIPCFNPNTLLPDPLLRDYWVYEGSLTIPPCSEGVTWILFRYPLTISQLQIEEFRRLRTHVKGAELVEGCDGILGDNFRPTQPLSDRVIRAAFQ
# UniProt Q9Y3I0: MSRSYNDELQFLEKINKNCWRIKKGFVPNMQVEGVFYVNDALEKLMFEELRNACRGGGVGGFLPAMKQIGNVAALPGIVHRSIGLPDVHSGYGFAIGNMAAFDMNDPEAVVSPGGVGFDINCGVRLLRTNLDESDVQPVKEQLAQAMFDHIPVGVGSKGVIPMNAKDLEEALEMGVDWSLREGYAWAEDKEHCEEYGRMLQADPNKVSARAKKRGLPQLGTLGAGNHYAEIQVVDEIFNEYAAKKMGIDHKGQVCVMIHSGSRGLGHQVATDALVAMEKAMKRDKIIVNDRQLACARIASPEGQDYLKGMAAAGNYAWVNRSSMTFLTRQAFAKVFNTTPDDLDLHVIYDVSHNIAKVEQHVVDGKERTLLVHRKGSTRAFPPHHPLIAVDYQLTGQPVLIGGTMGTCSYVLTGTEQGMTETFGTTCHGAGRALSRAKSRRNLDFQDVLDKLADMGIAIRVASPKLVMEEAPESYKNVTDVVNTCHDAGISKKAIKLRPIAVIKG
# UniProt A6NDU8: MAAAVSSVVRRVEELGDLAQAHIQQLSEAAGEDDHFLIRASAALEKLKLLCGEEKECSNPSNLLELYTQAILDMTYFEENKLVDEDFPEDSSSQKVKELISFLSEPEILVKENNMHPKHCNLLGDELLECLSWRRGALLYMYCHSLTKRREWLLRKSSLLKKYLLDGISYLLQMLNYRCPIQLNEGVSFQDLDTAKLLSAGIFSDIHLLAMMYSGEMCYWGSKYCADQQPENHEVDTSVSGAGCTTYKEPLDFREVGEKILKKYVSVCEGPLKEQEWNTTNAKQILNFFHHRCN
# UniProt Q96QE5: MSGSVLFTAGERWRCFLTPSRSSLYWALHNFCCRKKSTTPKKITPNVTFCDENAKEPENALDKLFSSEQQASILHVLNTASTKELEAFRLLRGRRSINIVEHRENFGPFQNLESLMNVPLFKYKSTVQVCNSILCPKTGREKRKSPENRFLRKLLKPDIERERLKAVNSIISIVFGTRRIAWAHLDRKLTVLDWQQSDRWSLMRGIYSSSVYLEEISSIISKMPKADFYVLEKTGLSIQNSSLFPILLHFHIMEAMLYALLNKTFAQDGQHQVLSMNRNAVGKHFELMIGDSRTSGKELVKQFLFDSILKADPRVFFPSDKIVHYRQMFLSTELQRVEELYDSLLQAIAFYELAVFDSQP
# UniProt Q8N9R8: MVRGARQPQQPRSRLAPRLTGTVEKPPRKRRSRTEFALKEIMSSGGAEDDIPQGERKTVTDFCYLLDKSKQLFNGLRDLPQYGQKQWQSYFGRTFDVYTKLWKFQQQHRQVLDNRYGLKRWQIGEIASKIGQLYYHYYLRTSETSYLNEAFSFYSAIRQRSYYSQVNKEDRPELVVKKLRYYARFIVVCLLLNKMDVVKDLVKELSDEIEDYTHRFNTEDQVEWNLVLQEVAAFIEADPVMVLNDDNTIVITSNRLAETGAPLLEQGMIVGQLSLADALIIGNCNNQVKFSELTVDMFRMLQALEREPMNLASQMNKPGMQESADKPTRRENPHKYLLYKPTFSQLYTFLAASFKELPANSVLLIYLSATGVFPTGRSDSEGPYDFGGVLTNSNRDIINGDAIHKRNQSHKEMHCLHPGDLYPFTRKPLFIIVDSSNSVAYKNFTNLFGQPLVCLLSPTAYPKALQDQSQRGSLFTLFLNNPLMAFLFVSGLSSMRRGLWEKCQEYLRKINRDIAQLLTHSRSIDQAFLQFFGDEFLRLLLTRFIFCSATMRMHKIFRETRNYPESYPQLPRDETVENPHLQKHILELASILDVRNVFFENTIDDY
# UniProt Q14012: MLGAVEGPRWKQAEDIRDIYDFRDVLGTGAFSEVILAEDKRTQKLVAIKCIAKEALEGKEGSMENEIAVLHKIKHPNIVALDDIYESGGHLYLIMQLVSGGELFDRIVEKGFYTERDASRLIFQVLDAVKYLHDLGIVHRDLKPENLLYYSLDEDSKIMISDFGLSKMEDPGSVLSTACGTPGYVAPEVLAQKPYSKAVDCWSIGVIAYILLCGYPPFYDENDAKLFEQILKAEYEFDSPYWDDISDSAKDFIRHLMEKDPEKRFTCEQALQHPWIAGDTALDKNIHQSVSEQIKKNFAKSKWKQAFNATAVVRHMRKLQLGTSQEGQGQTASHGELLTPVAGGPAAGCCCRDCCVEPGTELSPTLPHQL
# Compound: COc1ccc(Cn2ccc3ccc(C(=O)NO)cc32)cc1
# Experiment: dose-dependent thermal stabilisation call (2D-TPP, DLPTP, 10% FDR) (binary (1 = stabilised)); higher = stabilised by the compound
# Settings: system: HL-60 intact cells; concentration range 0.04-10 µM
row,Target,dose-dependent thermal stabilisation call
1,C20ORF11 (UniProt Q9NWU2),inactive: 0
2,C19ORF54 (UniProt Q5BKX5),inactive: 0
3,CANX (UniProt P27824),inactive: 0
4,C4ORF30 (UniProt Q9NXF7),inactive: 0
5,CA2 (UniProt P00918),inactive: 0
6,C8ORF83 (UniProt Q629K1),inactive: 0
7,C14ORF149 (UniProt Q96EM0),inactive: 0
8,C7ORF42 (UniProt Q9NWD8),inactive: 0
9,C19ORF53 (UniProt Q9UNZ5),inactive: 0
10,C4ORF14 (UniProt Q8NC60),inactive: 0
11,C3ORF26 (UniProt Q9BQ75),inactive: 0
12,C17ORF37 (UniProt Q9BRT3),inactive: 0
13,C20ORF20 (UniProt Q9NV56),inactive: 0
14,C1ORF35 (UniProt Q9BU76),inactive: 0
15,C18ORF25 (UniProt Q96B23),inactive: 0
16,CBX3 (UniProt Q13185),inactive: 0
17,C6ORF130 (UniProt Q9Y530),active: 1
18,C1ORF103 (UniProt Q5T3J3),inactive: 0
19,C17ORF59 (UniProt Q96GS4),inactive: 0

# Exported bar-delimited: entries from further up.
row | Target | dose-dependent thermal stabilisation call
4 | C4ORF30 (UniProt Q9NXF7) | inactive: 0
16 | CBX3 (UniProt Q13185) | inactive: 0

# Continuation.

row,Target,dose-dependent thermal stabilisation call
1,C6ORF134 (UniProt Q5SQI0),inactive: 0
2,CAPNS1 (UniProt P04632),inactive: 0
3,C1ORF71 (UniProt Q6PJW8),inactive: 0
4,CBX1 (UniProt P83916),inactive: 0
5,C2ORF76 (UniProt Q3KRA6),inactive: 0
6,C15ORF24 (UniProt Q9NPA0),inactive: 0
7,CAB39L (UniProt Q9H9S4),inactive: 0
8,C7ORF50 (UniProt Q9BRJ6),inactive: 0
9,C15ORF40 (UniProt Q8WUR7),inactive: 0
10,C2ORF56 (UniProt Q7L592),inactive: 0
11,C19ORF38 (UniProt A8MVS5),inactive: 0
12,C1ORF50 (UniProt Q9BV19),inactive: 0
13,CA8 (UniProt P35219),inactive: 0
14,C22ORF28 (UniProt Q9Y3I0),active: 1
15,C16ORF42 (UniProt Q9UJK0),inactive: 0
16,C5ORF51 (UniProt A6NDU8),inactive: 0
17,C17ORF42 (UniProt Q96QE5),inactive: 0
18,C9ORF126 (UniProt Q8N9R8),inactive: 0
19,CAMK1 (UniProt Q14012),inactive: 0

# Source: the supplement of paper PMC7666118
